According to PubChem BioAssay AID2551 (National Center for Advancing Translational Sciences (NCATS), 2010):
“And” between values parts separate entries of the source, which are not always exact repeats. Equal values may be shown once. Hit rate of the full screen: of about 310,000 compounds, about 17,000 (5.5%) were called active. The inconclusive results got no clear call from the source; some entries with a clear call stand among them for comparison. Calls follow the shape of the dose curve; as a rule, active = well fitted inhibition curve with a large enough effect; inconclusive = small, poorly fitted or top-dose-only effect, or effect the other way; inactive = no such curve, though single readings can be large or run the other way. Potencies of inconclusive entries are doubtful fits and often do not repeat.

Amino acid sequences for entries named in this document (tags omitted). A change or cut given only in a name is not applied to a line headed by its entry.
UniProt P51450: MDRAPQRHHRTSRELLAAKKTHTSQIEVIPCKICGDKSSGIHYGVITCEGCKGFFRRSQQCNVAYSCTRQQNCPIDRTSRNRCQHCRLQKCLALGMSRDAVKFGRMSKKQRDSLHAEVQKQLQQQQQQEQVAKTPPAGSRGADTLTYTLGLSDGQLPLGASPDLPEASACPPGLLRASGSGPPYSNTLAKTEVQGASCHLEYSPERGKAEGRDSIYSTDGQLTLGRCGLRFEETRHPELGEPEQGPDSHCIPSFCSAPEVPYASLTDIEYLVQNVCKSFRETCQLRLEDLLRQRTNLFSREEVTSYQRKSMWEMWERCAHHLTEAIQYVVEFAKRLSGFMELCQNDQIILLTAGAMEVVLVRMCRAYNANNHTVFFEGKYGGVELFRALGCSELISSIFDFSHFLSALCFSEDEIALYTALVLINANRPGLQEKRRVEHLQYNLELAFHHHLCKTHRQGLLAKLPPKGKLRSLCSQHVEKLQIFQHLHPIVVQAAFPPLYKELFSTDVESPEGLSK

Target: Nuclear receptor ROR-gamma (Mus musculus) (UniProt P51450)
Experiment: qHTS for inhibitors of ROR gamma transcriptional activity; also: nearly all actives have a fitted effect of over 60% in size
Conditions: Drosophila S2 Gal4-RORgamma UAS-luciferase reporter, 20 h; activity change, negative = inhibition: at 53.6 µM (top of the series)
In short: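 ROR gamma transcriptional activity was tracked as Gal4-UAS luciferase output in stably transfected Drosophila Schneider cells, with compound added 1 hr before 700 uM copper sulfate induction and a 20 hr ambient-temperature incubation.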
% is scaled to controls: 0 for no effect and ±100 for the full control effect; potency is read from the fitted curve at half-maximal effect.

SMILES	Potency	activity change, negative = inhibition
NNC(=S)Nc1ccc(OC(F)(F)F)cc1	inconclusive: 14.1 µM [inhibitor, single point]	
Cc1ccc(-n2cc(CNCCCn3ccnc3C)c(-c3ccc(F)cc3)n2)cc1	inconclusive: 8.91 µM [inhibitor, partial curve]	
CC(C)Oc1ccc(CCC(=O)N/N=C/c2ccncc2)cc1	active: 20 µM	
CCC(C)N1CC(=O)N2Cc3[nH]c4ccccc4c3C[C@H]2C1=O (stereo partly specified)		inactive: -15.5%
CCCCNc1nc(-c2ccccc2)nc(-n2ccnc2)n1	inconclusive: 0.562 µM [inhibitor, full curve, poor fit]	
O=C(NNC1=Nc2ccccc2SC1)c1ccc(F)cc1	inconclusive: 0.398 µM [inhibitor, full curve]	
CCOc1cc2[nH]c(=S)n(CCC(=O)N3CCc4ccccc4C3)c(=O)c2cc1OCC		inactive: -19.9%
Cc1ccc(S(=O)(=O)N2CC=C(c3c(C)n(C)c4ccccc34)CC2)cc1	inconclusive: 5.62 µM [activator, single point]	
O=C(NCc1ccccc1F)c1ccc(S(=O)(=O)Nc2cccc(C(F)(F)F)c2)cc1	inconclusive: 17.8 µM [activator, partial curve]	
COc1cc(/C=C2\C(=O)ON=C2c2ccccc2)cc(Cl)c1O	inconclusive: 25.1 µM [inhibitor, single point]	
O=C(N/N=C/c1ccc[nH]1)c1ccc(Cl)cc1	active: 3.16 µM	
CCn1c(C)nc2cc(S(=O)(=O)C(F)(F)F)ccc21	inconclusive: 31.6 µM [activator, single point]	
Cc1nc2cnc(Oc3cccc(Cl)c3)nc2n(CCC#N)c1=O		inactive: -22.1%
COc1cc2c(OC)cccc2cc1C(=O)O		inactive: 3.78%
Cc1cccc(Nc2nnc(SCC(=O)NC(=O)Nc3ccc4c(c3)OCCO4)s2)c1	inconclusive: 0.891 µM [inhibitor, single point]	
COC(=O)c1cc(O)c(OCc2ccccc2)c(O)c1	inconclusive: 0.0045 µM [activator, full curve, poor fit]	
CCOc1cc(/C=N/NC(=O)C(=O)N/N=C/c2ccc(O)c(OCC)c2)ccc1O	inconclusive: 4.47 µM [activator, single point]	
Cc1cc(/C=N/NC(=O)c2ccc(O)cc2)c(C)n1CC(C)C	active: 7.94 µM	
CCOC(=O)N1CCC(N2C(=O)c3ccc(C(=O)NCc4ccc(F)cc4)cc3C2=O)CC1		inactive: 16.4%
O=C(COc1ncnc2ccc(Br)cc12)Nc1ccc(N2CCOCC2)cc1		inactive: -26.5%
CCOC(=O)Cc1c(C)nc2c(-c3ccc(Cl)cc3)c(C)[nH]n2c1=O	active: 6.31 µM	
CCc1c(C(=O)N/N=C/c2cccs2)nnn1-c1nonc1N	active: 12.6 µM	
CC(=O)OCC1OC(C#Cc2ccccc2)C=CC1OC(C)=O (stereo unspecified)	inconclusive: 5.62 µM [inhibitor, single point]	
CCCCn1nnc(NC(=O)Cc2ccc(Cl)cc2)n1	inconclusive: 22.4 µM [activator, single point]	
COc1ccc(OC)c(/C=C/C(=O)Nc2ccc3c(c2)CCC3)c1	inconclusive: 12.6 µM [activator, single point]	
COc1cccc(-c2nnc(-c3ccc(C(F)(F)F)cc3)o2)c1OC	inconclusive: 3.55 µM [activator, partial curve]	

Six compounds already listed, ordered by length of the SMILES, descending.
SMILES	Potency	activity change, negative = inhibition
CCOC(=O)N1CCC(N2C(=O)c3ccc(C(=O)NCc4ccc(F)cc4)cc3C2=O)CC1		inactive: 16.4%
CCC(C)N1CC(=O)N2Cc3[nH]c4ccccc4c3C[C@H]2C1=O (stereo partly specified)		inactive: -15.5%
Cc1cc(/C=N/NC(=O)c2ccc(O)cc2)c(C)n1CC(C)C	active: 7.94 µM	
Cc1nc2cnc(Oc3cccc(Cl)c3)nc2n(CCC#N)c1=O		inactive: -22.1%
CCCCNc1nc(-c2ccccc2)nc(-n2ccnc2)n1	inconclusive: 0.562 µM [inhibitor, full curve, poor fit]	
O=C(NNC1=Nc2ccccc2SC1)c1ccc(F)cc1	inconclusive: 0.398 µM [inhibitor, full curve]	

Following part

SMILES	Potency	activity change, negative = inhibition
Cn1c(=O)c2c(nc(NCCc3ccccc3)n2Cc2ccccc2)n(C)c1=O	active: 11.2 µM	
COc1ccc(N(Cc2ccccc2)S(=O)(=O)c2cccc(C(=O)NC3=NCCS3)c2)cc1	inconclusive: 22.4 µM [inhibitor, single point]	
O=C(NCc1ccccn1)[C@H]1C[C@@H]1[C@H](NP(=O)(c1ccccc1)c1ccccc1)c1ccccc1	inactive	
CC(OC(=O)c1cccnc1SCc1cc(=O)n2ccccc2n1)c1ccccn1 (stereo unspecified)	inconclusive: 14.1 µM [activator, single point]	
O=C(c1ccc(-c2nc3ccccc3s2)o1)N1CCN(c2ccccc2O)CC1	inconclusive: 6.31 µM [activator, partial curve]	
C=CC(COCc1ccccc1)N(Cc1ccc(OC)cc1)S(=O)(=O)c1ccccc1Br (stereo unspecified)	inconclusive: 562 nM [inhibitor, partial curve, poor fit] and inconclusive: 3.16 µM [inhibitor, full curve]	
COc1ccc(NC(=O)CSC2CCCCC2)cc1	inconclusive: 14.1 µM [activator, single point]	
CN(C)CCOc1nc(-c2ccccc2)nc2c1oc1ccccc12		inactive: -37.2%
Cc1cc(/C=C2/C(=O)NN(c3ccccc3)C2=O)c(C)n1-c1cccc(O)c1	inconclusive: 12.6 µM [inhibitor, single point]	
COc1cc(/C=C/C(=O)c2ccc3c(c2)OCCO3)cc(OC)c1OC	inconclusive: 31.6 µM [inhibitor, single point]	
COc1ccc(C(=O)CC(=O)C(=O)Nc2cc(OC)c(OC)c(OC)c2)cc1	inconclusive: 12.6 µM [inhibitor, single point]	
CCOc1ccc(OCc2ccc(C(=O)NCc3cccnc3)o2)cc1	inconclusive: 12.6 µM [activator, single point]	
Cc1cccc(-n2c(CCc3ccccc3)nnc2SCC(=O)c2ccccc2)c1	inconclusive: 15.8 µM [inhibitor, single point]	
CCCNc1nc2ccccc2n2c(C)nnc12	inconclusive: 14.1 µM [inhibitor, partial curve]	
CC1CCc2c(sc3ncnc(SCC(=O)N4CCN(C(=O)c5ccco5)CC4)c23)C1 (stereo unspecified)		inactive: -25.2%
O=C(Nc1nnc(C2=COCCO2)o1)c1ccc(Br)cc1	active: 0.794 µM	
S=C(NCc1ccco1)N/N=C/c1ccncc1	active: 15.8 µM	
Cc1ccc(C(=O)NC(=S)NCc2ccco2)cc1	active: 10 µM	
COc1ccc(/C=N/N2CCOCC2)cc1COc1ccc(F)cc1	inconclusive: 6.31 µM [activator, partial curve]	
N#CC1=C(N)Oc2cc(O)c(C=Nc3ccccc3)cc2C1c1ccccc1 (stereo unspecified)		inactive: -8.99%
COc1cc2c(cc1NC(=O)COC(=O)Cn1cnc3ccccc31)oc1ccccc12	active: 2 µM	
CCCC(=O)n1nc(-c2ccccc2)nc1N	inconclusive: 35.5 µM [activator, single point]	
CCCCC[C@H](O)/C=C/C=C\C=C\C=C\[C@@H](O)[C@@H](O)CCCC(=O)O		inactive: -4.43%
N#Cc1nc(-c2ccc(OCc3ccc(Cl)cc3)cc2)oc1NCc1cccnc1		inactive: 40.9%
CCOc1ccc(CNC(=S)N/N=C/c2ccncc2)cc1	active: 10 µM	
CC1(C)c2ccccc2N2CC(=O)NC21/C=C/c1ccco1 (stereo unspecified)	inconclusive: 28.2 µM [inhibitor, single point]	

SMILES	Potency	activity change, negative = inhibition
COc1cccc(C(NC(C)=O)c2ccc3cccnc3c2O)c1 (stereo unspecified)	active: 2.82 µM	
Cc1ccc(C(=O)NCc2ccccn2)o1	inconclusive: 10 µM [inhibitor, partial curve]	
CC(Oc1ccc(Cl)cc1Cl)C(=O)Nc1cccnc1 (stereo unspecified)	inconclusive: 35.5 µM [inhibitor, single point]	
C=CCN1C=CC(=C/C=C(/C#N)C(=O)OCC)C=C1	inconclusive: 10 µM [inhibitor, partial curve, poor fit]	
COc1ccc(CCNC(=S)Nc2ccccc2)cc1	active: 2 µM	
Cn1c(O)c(C2=c3ccccc3=NC2=O)sc1=Nc1ccc(Cl)cc1	inconclusive: 4.47 µM [activator, full curve]	
CC12CCC=CC1C(c1ccc(/C=C/c3ccccc3)cc1F)N(Cc1ccccc1)C2=O (stereo unspecified)		inactive: 12.1%
Cc1cccc(-c2noc(CCCC(=O)Nc3ccc(C(N)=O)cc3)n2)c1	active: 15.8 µM	
CC1=NN(Cc2ccccc2)C(=O)/C1=C\c1ccc(N(C)C)cc1	inconclusive: 12.6 µM [activator, single point]	
COc1ccccc1Nc1nc(N)nc(CSC(=S)N2CCC(C)CC2)n1	active: 0.126 µM	
NNC(=S)NC1CCCCC1	active: 2.82 µM	
COc1cc(C(=O)Nc2nnc(C3CC3)s2)ccc1OCc1c(C)noc1C		inactive: -33.6%
Cc1ccccc1NC(=O)c1nnn(-c2ccc3c(c2)OCCO3)c1N	active: 0.631 µM	
Cc1ccc(NC(=S)NN2CCOCC2)c(C)c1	active: 11.2 µM	
CSc1ccc(CCNC(=O)c2cccc3c2C(=O)N(C2CCCCC2)C3)cc1	inconclusive: 12.6 µM [activator, single point]	
CN1[C@@H]2CC[C@H]1CC(OC(=O)[C@@H](CO)c1ccccc1)C2 (stereo partly specified)	inactive	
Cn1c(=O)oc2cc(S(=O)(=O)Nc3cccc4c3CCCC4)ccc21	inconclusive: 8.91 µM [activator, partial curve, poor fit]	
Cc1ccc(C(=O)NCCn2cc(SCC(=O)N3CCOCC3)c3ccccc32)cc1	active: 12.6 µM	
COC(=O)c1cc(-c2ccc(C)o2)nc2ccccc12	inconclusive: 3.16 µM [activator, single point]	
COc1ccc([N+](=O)[O-])cc1NC(=S)NC(=O)C(C)(C)C	inconclusive: 14.1 µM [inhibitor, single point]	
COc1cc(C2C3=C(CCCC3=O)Nc3ccc4ncccc4c32)ccc1O (stereo unspecified)		inactive: 11.7%
O=C(CN1CCOCC1)Nc1nc2ccc(Br)cc2s1		inactive: 26.3%
COC(=O)c1cc(CSc2nc3ccccc3c(=O)n2C)oc1C	inconclusive: 35.5 µM [inhibitor, single point]	
Cc1nn(C)c(C)c1/C=C/C(=O)c1ccccc1	inconclusive: 11.2 µM [activator, single point]	
